In article doi:10.1101/2025.09.24.678297:
Results are given in words; binding and its absence hold for the method and conditions named. Binding seen in cells or lysates may run through a third protein. A yes stands for co-enrichment or nearness to the bait. Other partners may have been found. Tags and fused reporters may be left off the sequences shown.

B1: MAP3K^Byr2 (endogenous) (enzyme, UniProt P28829 1-659)
chain: MEYYTSKEVAEWLKSIGLEKYIEQFSQNNIEGRHLNHLTLPLLKDLGIENTAKGKQFLKQRDYLREFPRPCILRFIACNGQTRAVQSRGDYQKTLAIALKKFSLEDASKFIVCVSQSSRIKLITEEEFKQICFNSSSPERDRLIIVPKEKPCPSFEDLRRSWEIELAQPAALSSQSSLSPKLSSVLPTSTQKRSVRSNNAKPFESYQRPPSELINSRISDFFPDHQPKLLEKTISNSLRRNLSIRTSQGHNLGNFGQEILPRSSRRARPSELVCPLSSLRISVAEDVNRLPRIDRGFDPPLTVSSTQRISRPPSLQKSITMVGVEPLYQSNGNEKSSKYNVFSESAHGNHQVLSFSPGSSPSFIEQPSPISPTSTTSEDTNTLEEDTDDQSIKWIRGALIGSGSFGQVYLGMNASSGELMAVKQVILDSVSESKDRHAKLLDALAGEIALLQELSHEHIVQYLGSNLNSDHLNIFLEYVPGGSVAGLLTMYGSFEETLVKNFIKQTLKGLEYLHSRGIVHRDIKGANILVDNKGKIKISDFGISKKLELNSTSTKTGGARPSFQGSSFWMAPEVVKQTMHTEKTDIWSLGCLVIEMLTSKHPYPNCDQMQAIFRIGENILPEFPSNISSSAIDFLEKTFAIDCNLRPTASELLSHPFVS

Target: T1, Ste4-GFP (endogenous) (S. pombe (endogenous in mating cells)) (UniProt P36622)
T1 sequence: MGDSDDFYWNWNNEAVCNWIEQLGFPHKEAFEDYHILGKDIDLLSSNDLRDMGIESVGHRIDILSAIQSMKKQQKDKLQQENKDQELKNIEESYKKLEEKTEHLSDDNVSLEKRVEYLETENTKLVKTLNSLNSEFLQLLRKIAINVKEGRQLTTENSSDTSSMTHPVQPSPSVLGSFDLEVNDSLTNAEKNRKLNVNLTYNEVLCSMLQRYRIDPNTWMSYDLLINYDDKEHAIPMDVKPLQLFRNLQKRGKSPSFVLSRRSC
Test: affinity purification with mass spectrometry

| Molecule | binding |
| --- | --- |
| Sms1 (SPAC23E2.03c, endogenous) (S. pombe (endogenous in mating cells)) | binds |
| B1 | binds |
